Experimental data as given in doi:10.1101/2023.06.14.544764.
No constants are given. Whether binding was seen depends on the method and setting. In cells and extracts the contact can be indirect. These calls come from enrichment with a bait or labelling near it, and not all partners need be listed. Sequences can lack the tags named with a protein. Values belong to the binder of their own block, whether it stands above or below them.

How the values were obtained:
[1] = biological target: T1, PURB fused to eGFP (human (SupT1 cDNA or available template plasmids)) (UniProt Q96QR8); assay: affinity purification with mass spectrometry
T1 sequence: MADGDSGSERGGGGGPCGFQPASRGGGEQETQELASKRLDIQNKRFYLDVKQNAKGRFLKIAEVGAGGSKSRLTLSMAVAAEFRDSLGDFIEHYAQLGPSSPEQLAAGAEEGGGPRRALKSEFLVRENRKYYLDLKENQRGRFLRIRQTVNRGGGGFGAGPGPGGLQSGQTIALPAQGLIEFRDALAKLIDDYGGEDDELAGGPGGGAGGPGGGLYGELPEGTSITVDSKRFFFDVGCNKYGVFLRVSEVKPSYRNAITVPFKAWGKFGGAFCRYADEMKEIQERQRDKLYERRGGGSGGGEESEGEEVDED

[2] = biological target: T2, PURA fused to eGFP (human (SupT1 cDNA or available template plasmids)) (UniProt Q00577); assay: affinity purification with mass spectrometry
T2 sequence: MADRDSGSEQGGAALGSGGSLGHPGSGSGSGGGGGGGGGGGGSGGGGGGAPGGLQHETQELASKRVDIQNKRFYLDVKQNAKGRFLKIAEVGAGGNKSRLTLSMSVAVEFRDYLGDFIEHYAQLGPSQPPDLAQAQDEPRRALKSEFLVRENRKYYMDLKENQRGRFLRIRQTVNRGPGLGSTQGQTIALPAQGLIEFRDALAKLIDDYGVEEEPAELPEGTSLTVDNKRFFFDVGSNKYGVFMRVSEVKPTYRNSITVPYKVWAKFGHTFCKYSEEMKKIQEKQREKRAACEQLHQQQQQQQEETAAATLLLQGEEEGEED

binding [1]: binds
B1: transcriptional activator protein Pur-alpha (PURA) (protein, UniProt Q00577 1-322)
chain: T2 sequence

binding [2]: binds
B2: Pur-beta (PURB) (protein, UniProt Q96QR8 1-312)
chain: T1 sequence

binding [2]: binds
binding [1]: binds
B3: MOV10 (protein, UniProt Q9HCE1 1-1003)
chain: MPSKFSCRQLREAGQCFESFLVVRGLDMETDRERLRTIYNRDFKISFGTPAPGFSSMLYGMKIANLAYVTKTRVRFFRLDRWADVRFPEKRRMKLGSDISKHHKSLLAKIFYDRAEYLHGKHGVDVEVQGPHEARDGQLLIRLDLNRKEVLTLRLRNGGTQSVTLTHLFPLCRTPQFAFYNEDQELPCPLGPGECYELHVHCKTSFVGYFPATVLWELLGPGESGSEGAGTFYIARFLAAVAHSPLAAQLKPMTPFKRTRITGNPVVTNRIEEGERPDRAKGYDLELSMALGTYYPPPRLRQLLPMLLQGTSIFTAPKEIAEIKAQLETALKWRNYEVKLRLLLHLEELQMEHDIRHYDLESVPMTWDPVDQNPRLLTLEVPGVTESRPSVLRGDHLFALLSSETHQEDPITYKGFVHKVELDRVKLSFSMSLLSRFVDGLTFKVNFTFNRQPLRVQHRALELTGRWLLWPMLFPVAPRDVPLLPSDVKLKLYDRSLESNPEQLQAMRHIVTGTTRPAPYIIFGPPGTGKTVTLVEAIKQVVKHLPKAHILACAPSNSGADLLCQRLRVHLPSSIYRLLAPSRDIRMVPEDIKPCCNWDAKKGEYVFPAKKKLQEYRVLITTLITAGRLVSAQFPIDHFTHIFIDEAGHCMEPESLVAIAGLMEVKETGDPGGQLVLAGDPRQLGPVLRSPLTQKHGLGYSLLERLLTYNSLYKKGPDGYDPQFITKLLRNYRSHPTILDIPNQLYYEGELQACADVVDRERFCRWAGLPRQGFPIIFHGVMGKDEREGNSPSFFNPEEAATVTSYLKLLLAPSSKKGKARLSPRSVGVISPYRKQVEKIRYCITKLDRELRGLDDIKDLKVGSVEEFQGQERSVILISTVRSSQSFVQLDLDFNLGFLKNPKRFNVAVTRAKALLIIVGNPLLLGHDPDWKVFLEFCKENGGYTGCPFPAKLDLQQGQNLLQGLSKLSPSTSGPHSHDYLPQEREGEGGLSLQVEPEWRNEL
